Source: the M2OR odorant receptor database
Only a part is listed here, and it is no random draw. The calls were merged from several studies; some rest on single wells.

Sequences of proteins named here, by UniProt entry; tags and fusion partners are left off. A change or cut given only in a name is not applied to a line headed by its entry.
UniProt Q8NGT0: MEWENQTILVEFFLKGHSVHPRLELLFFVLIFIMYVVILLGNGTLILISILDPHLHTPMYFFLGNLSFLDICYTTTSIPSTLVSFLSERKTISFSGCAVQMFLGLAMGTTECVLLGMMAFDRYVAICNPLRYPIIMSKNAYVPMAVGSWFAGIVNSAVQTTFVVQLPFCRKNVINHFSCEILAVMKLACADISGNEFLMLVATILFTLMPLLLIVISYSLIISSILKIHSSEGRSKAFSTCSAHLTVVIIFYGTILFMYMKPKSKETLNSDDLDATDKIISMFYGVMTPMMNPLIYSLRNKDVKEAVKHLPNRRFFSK
UniProt Q8NGV5: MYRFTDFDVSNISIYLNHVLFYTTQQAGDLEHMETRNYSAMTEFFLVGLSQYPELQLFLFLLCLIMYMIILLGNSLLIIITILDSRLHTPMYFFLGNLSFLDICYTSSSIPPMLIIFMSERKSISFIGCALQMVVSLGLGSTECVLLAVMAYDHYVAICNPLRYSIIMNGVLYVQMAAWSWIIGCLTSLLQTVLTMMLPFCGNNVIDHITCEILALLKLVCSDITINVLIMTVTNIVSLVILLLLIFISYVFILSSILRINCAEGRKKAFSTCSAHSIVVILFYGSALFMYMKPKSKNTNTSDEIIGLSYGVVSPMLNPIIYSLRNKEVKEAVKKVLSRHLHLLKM
UniProt Q8NGS4: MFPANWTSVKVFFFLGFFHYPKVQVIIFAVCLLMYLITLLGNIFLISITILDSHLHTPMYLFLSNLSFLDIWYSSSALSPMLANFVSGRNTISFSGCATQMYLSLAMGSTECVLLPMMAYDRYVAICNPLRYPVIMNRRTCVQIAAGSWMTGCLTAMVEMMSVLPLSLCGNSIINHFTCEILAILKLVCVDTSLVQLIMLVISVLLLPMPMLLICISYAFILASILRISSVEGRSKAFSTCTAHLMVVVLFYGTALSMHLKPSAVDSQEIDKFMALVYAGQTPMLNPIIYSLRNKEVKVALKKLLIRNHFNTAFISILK
UniProt Q8NGZ3: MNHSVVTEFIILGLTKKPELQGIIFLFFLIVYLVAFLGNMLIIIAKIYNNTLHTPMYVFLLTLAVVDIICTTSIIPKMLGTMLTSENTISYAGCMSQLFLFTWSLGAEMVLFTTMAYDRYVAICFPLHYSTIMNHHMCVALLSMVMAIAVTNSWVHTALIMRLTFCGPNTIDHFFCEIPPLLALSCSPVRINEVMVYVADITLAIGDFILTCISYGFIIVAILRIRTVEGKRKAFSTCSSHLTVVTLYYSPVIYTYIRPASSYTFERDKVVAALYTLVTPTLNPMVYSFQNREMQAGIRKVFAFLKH

Legend:
Conditions in all cases: stereoisomer not certain
OR13C2 (Homo sapiens) = target: T1, OR13C2 (Homo sapiens) (UniProt Q8NGS9)
T1 sequence (whole entry): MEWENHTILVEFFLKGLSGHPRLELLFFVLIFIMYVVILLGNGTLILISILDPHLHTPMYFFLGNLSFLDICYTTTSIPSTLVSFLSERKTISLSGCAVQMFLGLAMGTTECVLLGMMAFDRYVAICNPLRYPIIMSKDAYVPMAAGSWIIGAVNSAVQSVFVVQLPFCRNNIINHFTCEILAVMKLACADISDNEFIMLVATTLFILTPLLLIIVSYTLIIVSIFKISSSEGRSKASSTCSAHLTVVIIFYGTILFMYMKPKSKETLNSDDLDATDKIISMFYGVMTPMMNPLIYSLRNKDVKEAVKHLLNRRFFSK
Outline: (§1)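 Assay methods differ from source to source, frequently being transient luciferase assays in mammalian cell lines. For each receptor–molecule pair, the label responsive (active) applies when the original authors judged the measured signal statistically different from baseline, and non-responsive (inactive) applies otherwise.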

OR13C3 (Homo sapiens) = target: T2, OR13C3 (Homo sapiens) (UniProt Q8NGS6)
T2 sequence (whole entry): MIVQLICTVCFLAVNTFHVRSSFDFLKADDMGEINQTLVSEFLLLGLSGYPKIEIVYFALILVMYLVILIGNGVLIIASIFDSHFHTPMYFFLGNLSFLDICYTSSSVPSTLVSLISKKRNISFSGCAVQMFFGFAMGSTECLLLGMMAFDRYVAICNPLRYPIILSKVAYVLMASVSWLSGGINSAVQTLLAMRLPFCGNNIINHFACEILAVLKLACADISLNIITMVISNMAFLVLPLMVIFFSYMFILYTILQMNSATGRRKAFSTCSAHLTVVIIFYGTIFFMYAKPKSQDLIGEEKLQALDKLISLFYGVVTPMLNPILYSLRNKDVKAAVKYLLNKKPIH
Outline: as §1

OR13C4 (Homo sapiens) = target: T3, OR13C4 (Homo sapiens) (UniProt Q8NGS5)
T3 sequence (whole entry): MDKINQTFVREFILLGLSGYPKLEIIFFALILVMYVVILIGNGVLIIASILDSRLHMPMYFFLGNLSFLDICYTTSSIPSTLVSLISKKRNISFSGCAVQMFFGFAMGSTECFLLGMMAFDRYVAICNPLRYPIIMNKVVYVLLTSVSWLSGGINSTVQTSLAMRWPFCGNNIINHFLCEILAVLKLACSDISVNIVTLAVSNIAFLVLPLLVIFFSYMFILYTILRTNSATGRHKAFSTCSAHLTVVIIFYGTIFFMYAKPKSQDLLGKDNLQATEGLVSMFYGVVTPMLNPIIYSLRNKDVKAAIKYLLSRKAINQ
Outline: as §1

OR13C8 (Homo sapiens) = target: T4, OR13C8 (Homo sapiens) (UniProt Q8NGS7)
T4 sequence (whole entry): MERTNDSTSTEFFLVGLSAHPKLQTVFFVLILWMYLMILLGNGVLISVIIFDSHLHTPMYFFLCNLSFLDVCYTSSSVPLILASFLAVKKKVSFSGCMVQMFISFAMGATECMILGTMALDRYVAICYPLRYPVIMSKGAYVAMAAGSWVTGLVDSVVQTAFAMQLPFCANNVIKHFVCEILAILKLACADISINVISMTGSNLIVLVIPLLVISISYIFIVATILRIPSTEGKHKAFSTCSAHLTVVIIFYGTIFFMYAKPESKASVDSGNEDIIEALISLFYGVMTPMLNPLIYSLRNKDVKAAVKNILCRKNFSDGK
Outline: as §1

OR13H1 (Homo sapiens) = target: T5, OR13H1 (Homo sapiens) (UniProt Q8NG92)
T5 sequence (whole entry): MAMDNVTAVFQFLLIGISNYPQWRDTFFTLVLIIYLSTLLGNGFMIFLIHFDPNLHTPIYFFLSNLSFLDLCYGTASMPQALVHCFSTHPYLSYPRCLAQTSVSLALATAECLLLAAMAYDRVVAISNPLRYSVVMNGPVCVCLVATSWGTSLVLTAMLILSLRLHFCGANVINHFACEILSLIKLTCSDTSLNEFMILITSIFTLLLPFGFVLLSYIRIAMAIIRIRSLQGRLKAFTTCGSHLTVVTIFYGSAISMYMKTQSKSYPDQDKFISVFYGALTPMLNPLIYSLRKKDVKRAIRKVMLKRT
Outline: as §1

OR13C5 (Homo sapiens) = OR13C5 (Homo sapiens) (UniProt Q8NGS8)
Outline: as §1

OR13C9 (Homo sapiens) = OR13C9 (Homo sapiens) (UniProt Q8NGT0)
Outline: as §1

OR13D1 (Homo sapiens) = OR13D1 (Homo sapiens) (UniProt Q8NGV5)
Outline: as §1

OR13F1 (Homo sapiens) = OR13F1 (Homo sapiens) (UniProt Q8NGS4)
Outline: as §1

OR13G1 (Homo sapiens) = OR13G1 (Homo sapiens) (UniProt Q8NGZ3)
Outline: as §1

Measured: odorant receptor agonist call

CCCCCCCC=CC=O
inactive: OR13C2 (Homo sapiens) | OR13C3 (Homo sapiens) | OR13C4 (Homo sapiens) | OR13C8 (Homo sapiens) | OR13H1 (Homo sapiens)

COc1cc(C)ccc1O
inactive: OR13C2 (Homo sapiens) | OR13C3 (Homo sapiens) | OR13C4 (Homo sapiens) | OR13C8 (Homo sapiens) | OR13H1 (Homo sapiens)

CCCCCOC(C)=O
active: OR13C8 (Homo sapiens)
inactive: OR13C2 (Homo sapiens) | OR13C3 (Homo sapiens) | OR13C4 (Homo sapiens) | OR13H1 (Homo sapiens)

c1cnccn1
inactive: OR13C2 (Homo sapiens) | OR13C3 (Homo sapiens) | OR13C4 (Homo sapiens) | OR13C8 (Homo sapiens) | OR13H1 (Homo sapiens)

C=C(C)C1CCC2=CC(=O)CC(C)C2(C)C1 (stereo unspecified)
inactive: OR13C2 (Homo sapiens)

3 entries from above, arranged by SMILES length, low to high:
CCCCCOC(C)=O
active: OR13C8 (Homo sapiens)
inactive: OR13C2 (Homo sapiens) | OR13C3 (Homo sapiens) | OR13C4 (Homo sapiens) | OR13H1 (Homo sapiens)

CCCCCCCC=CC=O
inactive: OR13C2 (Homo sapiens) | OR13C3 (Homo sapiens) | OR13C4 (Homo sapiens) | OR13C8 (Homo sapiens) | OR13H1 (Homo sapiens)

COc1cc(C)ccc1O
inactive: OR13C2 (Homo sapiens) | OR13C3 (Homo sapiens) | OR13C4 (Homo sapiens) | OR13C8 (Homo sapiens) | OR13H1 (Homo sapiens)

Continuation:

CC1COCc2cc3c(cc21)C(C)(C)C(C)C3(C)C (stereo unspecified)
active: OR13C3 (Homo sapiens) | OR13C4 (Homo sapiens) | OR13H1 (Homo sapiens)
inactive: OR13C2 (Homo sapiens) | OR13C8 (Homo sapiens)

COc1ccccc1O
inactive: OR13C2 (Homo sapiens) | OR13C3 (Homo sapiens) | OR13C4 (Homo sapiens) | OR13C8 (Homo sapiens) | OR13H1 (Homo sapiens)

CCCCCCCC=O
inactive: OR13C2 (Homo sapiens) | OR13C3 (Homo sapiens) | OR13C4 (Homo sapiens) | OR13C8 (Homo sapiens) | OR13H1 (Homo sapiens)

CC(C)CCC(=O)O
inactive: OR13C2 (Homo sapiens) | OR13C3 (Homo sapiens) | OR13C4 (Homo sapiens) | OR13C8 (Homo sapiens) | OR13H1 (Homo sapiens)

C=CCc1ccc(OC)c(OC)c1
inactive: OR13C2 (Homo sapiens) | OR13C3 (Homo sapiens) | OR13C4 (Homo sapiens) | OR13C8 (Homo sapiens) | OR13H1 (Homo sapiens)

CCC1(O)C2(C)CCC(C2)C1(C)C (stereo unspecified)
inactive: OR13C2 (Homo sapiens) | OR13C3 (Homo sapiens) | OR13C4 (Homo sapiens) | OR13C8 (Homo sapiens) | OR13H1 (Homo sapiens)

COC(=O)c1ccccc1O
inactive: OR13C2 (Homo sapiens) | OR13C3 (Homo sapiens) | OR13C4 (Homo sapiens) | OR13C8 (Homo sapiens) | OR13H1 (Homo sapiens)

CC1CCC(C(C)C)C(O)C1 (stereo unspecified)
inactive: OR13C2 (Homo sapiens) | OR13C3 (Homo sapiens) | OR13C4 (Homo sapiens) | OR13C8 (Homo sapiens)
active: OR13H1 (Homo sapiens)

CC12C=CCC1C1CCC3=CC(=O)CCC3(C)C1CC2 (stereo unspecified)
inactive: OR13C2 (Homo sapiens) | OR13C3 (Homo sapiens) | OR13C4 (Homo sapiens) | OR13C8 (Homo sapiens) | OR13H1 (Homo sapiens)

CC(C)C=O
inactive: OR13C2 (Homo sapiens) | OR13C3 (Homo sapiens) | OR13C8 (Homo sapiens) | OR13H1 (Homo sapiens)
active: OR13C4 (Homo sapiens)

CCCCCCCCCC=O
inactive: OR13C2 (Homo sapiens) | OR13C3 (Homo sapiens) | OR13C4 (Homo sapiens) | OR13C8 (Homo sapiens) | OR13H1 (Homo sapiens)

c1ccc(Oc2ccccc2)cc1
inactive: OR13C2 (Homo sapiens) | OR13C3 (Homo sapiens) | OR13C4 (Homo sapiens) | OR13C8 (Homo sapiens) | OR13H1 (Homo sapiens)

COc1cc(C=O)ccc1O
inactive: OR13C2 (Homo sapiens) | OR13C3 (Homo sapiens) | OR13C4 (Homo sapiens) | OR13C8 (Homo sapiens) | OR13H1 (Homo sapiens)

CCCCCCOC(=O)CCC
inactive: OR13C2 (Homo sapiens) | OR13C3 (Homo sapiens) | OR13C4 (Homo sapiens) | OR13C8 (Homo sapiens) | OR13H1 (Homo sapiens)

CC(C)=CCCC(C)=CC=O
inactive: OR13C2 (Homo sapiens) | OR13C3 (Homo sapiens) | OR13C4 (Homo sapiens) | OR13C8 (Homo sapiens) | OR13H1 (Homo sapiens)

CC12C=CCC1C1CCC3CC(=O)CCC3(C)C1CC2 (stereo unspecified)
inactive: all assays above

CC12CCC(C1)C(C)(C)C2=O (stereo unspecified)
inactive: OR13C2 (Homo sapiens) | OR13C3 (Homo sapiens) | OR13C4 (Homo sapiens) | OR13C8 (Homo sapiens) | OR13H1 (Homo sapiens)
